Laboratory results: PubChem BioAssay AID1259425 (University of Nebraska Medical Center, 2018)
The whole screen tested about 14,000 reagents; below is a random part of them. Not all columns of the deposit are shown. Not stated in the record: the time to read-out.

Assay: 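Seek colon cancer weak points whose silencing resembles KSR1 loss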 (primary screen)
System: HCT116 human colon cancer cells
Reagent: siRNA pool against human genes, 50 nM siRNA
Read-out: 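mRNA of six signature genes measured together by branched-DNA assay after 50 nM siRNA pool, blank removed, divided by geometric mean of two housekeeping genes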
Direction: BNIP3L mRNA: higher = more BNIP3L transcript after knockdown; NDRG1 mRNA: higher = more NDRG1 transcript after knockdown; BNIP3 mRNA: higher = more BNIP3 transcript after knockdown

The opening 4 records, to show the layout:
| gene symbol | PubChem SID | BNIP3L mRNA, set 1 | NDRG1 mRNA, set 1 | BNIP3 mRNA, set 1 |
| --- | --- | --- | --- | --- |
| WDR11 | SID364000795 | 0.124 | 0.188 | 0.237 |
| PPIP5K1 | SID363999015 | 0.167 | 0.184 | 0.36 |
| AP1G2 | SID363994973 | 0.104 | 0.191 | 0.261 |
| ANAPC15 | SID363998568 | 0.0722 | 0.0999 | 0.437 |

Results, from the start:
| gene symbol | PubChem SID | BNIP3L mRNA, set 1 | NDRG1 mRNA, set 1 | BNIP3 mRNA, set 1 |
| --- | --- | --- | --- | --- |
| WDR11 | SID364000795 | 0.124 | 0.188 | 0.237 |
| PPIP5K1 | SID363999015 | 0.167 | 0.184 | 0.36 |
| AP1G2 | SID363994973 | 0.104 | 0.191 | 0.261 |
| ANAPC15 | SID363998568 | 0.0722 | 0.0999 | 0.437 |
| LY6D | SID363994769 | 0.159 | 0.189 | 0.472 |
| H1-2 | SID363996235 | 0.183 | 0.254 | 0.422 |
| KCTD16 | SID364005283 | 0.13 | 0.295 | 0.285 |
| TRANK1 | SID364005196 | 0.0563 | 0.0958 | 0.122 |
| TTPAL | SID364002802 | 0.102 | 0.354 | 0.483 |
| FXR1 | SID363996023 | 0.0816 | 0.2 | 0.466 |
| TRAF3IP2 | SID364004685 | 0.236 | 0.14 | 0.276 |
| SLX9 | SID364004470 | 0.121 | 0.18 | 0.196 |
| TMEM53 | SID364002892 | 0.133 | 0.177 | 0.23 |
| MPI | SID363993613 | 0.0596 | 0.272 | 0.245 |
| FDPSP3 | SID363992300 | 0.153 | 0.38 | 0.39 |
| ZP4 | SID364002073 | 0.11 | 0.213 | 0.324 |
| NAA40 | SID364003044 | 0.0697 | 0.198 | 0.229 |
| GALNT3 | SID363995461 | 0.0824 | 0.0875 | 0.183 |
| SACK1D | SID364003494 | 0.136 | 0.102 | 0.18 |
| PAX6 | SID363991612 | 0.136 | 0.399 | 0.33 |
| GGT7 | SID364004396 | 0.101 | 0.103 | 0.235 |
| ADCK2 | SID364004406 | 0.069 | 0.161 | 0.266 |
| PAPPA | SID363993750 | 0.0511 | 0.0901 | 0.219 |
| MCCC1 | SID364001523 | 0.0582 | 0.107 | 0.25 |
| PRMT8 | SID364001458 | 0.174 | 0.144 | 0.222 |
| VAT1 | SID363997189 | 0.135 | 0.363 | 0.335 |
| AIRE | SID363991714 | 0.126 | 0.274 | 0.296 |
| DOCK10 | SID364005459 | 0.156 | 0.212 | 0.451 |
| CCNA2 | SID363992522 | 0.06 | 0.242 | 0.183 |
| ZNF426 | SID364002755 | 0.0995 | 0.217 | 0.306 |
| ZNF343 | SID364002798 | 0.104 | 0.458 | 0.346 |
| LIN7A | SID363995628 | 0.0705 | 0.092 | 0.221 |
| PPP1R9B | SID364004083 | 0.0674 | 0.658 | 0.213 |
| RCC1 | SID363992554 | 0.14 | 0.484 | 0.376 |
| MACO1 | SID364000872 | 0.0915 | 0.126 | 0.24 |
| ARFGEF2 | SID363997231 | 0.117 | 0.133 | 0.312 |
| MAGEF1 | SID364002375 | 0.124 | 0.607 | 0.367 |
| C1orf21 | SID364003456 | 0.129 | 0.193 | 0.358 |
| SRGAP1 | SID364001812 | 0.107 | 0.14 | 0.237 |
| OR2B2 | SID364004303 | 0.123 | 0.0678 | 0.307 |
| BIRC7 | SID364002384 | 0.182 | 0.198 | 0.202 |
| CHP1 | SID363997930 | 0.166 | 0.102 | 0.209 |
| VWA1 | SID364002577 | 0.252 | 1.73 | 0.415 |
| THSD7B | SID364005185 | 0.0604 | 0.143 | 0.297 |
| BTG4 | SID364000382 | 0.203 | 0.424 | 0.349 |
| SMYD2 | SID364001550 | 0.0704 | 0.114 | 0.233 |
| GPRC5D | SID364001153 | 0.179 | 0.172 | 0.44 |
| CCNT2 | SID363992526 | 0.0439 | 0.0357 | 0.11 |
| HDAC10 | SID364003740 | 0.103 | 0.287 | 0.213 |
| LDHA | SID363996466 | 0.266 | 0.325 | 0.442 |
